Measured values taken from PMC7819943, “Rice protein-binding microarrays: a tool to detect cis-acting elements near promoter regions in rice”.
The other results are listed elsewhere or left out.

By UniProt entry, the sequences of proteins in these tests, tags left out.
UniProt Q0JBA9, entry or part of it: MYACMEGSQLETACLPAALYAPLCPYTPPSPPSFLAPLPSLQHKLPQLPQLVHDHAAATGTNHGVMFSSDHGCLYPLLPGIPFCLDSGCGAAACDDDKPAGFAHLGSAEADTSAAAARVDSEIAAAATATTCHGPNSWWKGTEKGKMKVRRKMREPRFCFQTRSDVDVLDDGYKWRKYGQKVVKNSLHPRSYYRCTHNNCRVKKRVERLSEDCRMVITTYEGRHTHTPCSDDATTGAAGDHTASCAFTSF

biological target: OsWRKY34 (Oryza sativa, UniProt Q0JBA9 1-250); test: protein-binding microarray (RPBM); PBS, 2% BSA, 51.3 ng/ul salmon testes DNA, 50 uM zinc acetate, 200 nM TF, 25 C, 1 h; high values mean tight binding; settings: protein: recombinant; tags: N-terminal polyhistidine and DsRed monomer fusion (pET32a); label: CyDye5-dUTP incorporated in the synthesized complementary strand; 3' TTTTT single-stranded linker to array surface; dsDNA, one strand shown
In short: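 Binding signal is defined as the fluorescence intensity of each feature in arbitrary units, read on an Axon 4000B scanner. Transcription factors with N-terminal polyhistidine and DsRed fusions came from E. coli BL21-CodonPlus and were purified on Ni–NTA. They were incubated at 200 nM for 1 h at 25 °C on a custom Agilent array that had been made double-stranded with Cy5-dUTP, with 50 µM zinc acetate present, and the array was washed.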

**Q.** For “CAGGGCCATGTTCGCTGATACATTGTGTTGGATTGCACTGCGGAGTCACCTAGTGCAG”, which binding signal is on record?
**A.** 8030 fluorescence intensity (a.u.)

**Q.** Which binding signal does the source give for “AGTCCGTGCACATCTACCTCCGCCGCGACGACGCCGCCGTCGGAGTCACCTAGTGCAG” here?
**A.** 8150 fluorescence intensity (a.u.)

**Q.** How did the binding signal turn out when “GGGCACTGGTGTGTGTGTATATTTCTTTTTTCTGAAGACTCGGAGTCACCTAGTGCAG” was run?
**A.** 13800 fluorescence intensity (a.u.)

**Q.** Which binding signal does the source give for “CTTTTTTTACGGTAGACGGAAACCCTTTTATAGCACTTTTCGGAGTCACCTAGTGCAG” here?
**A.** 8410 fluorescence intensity (a.u.)

**Q.** With “ATATGGACCTATACTCTATTTCTAATATTCCTTATTTTTACGGAGTCACCTAGTGCAG” as the sequence, how does the binding signal read?
**A.** 10200 fluorescence intensity (a.u.)

**Q.** How did the binding signal turn out when “GCCACACCCACACTGACACACATATACAAGCCAGAGAGATCGGAGTCACCTAGTGCAG” was run?
**A.** 8850 fluorescence intensity (a.u.)

**Q.** Which binding signal does the source give for “CAACTGCATAGGATCCTGATCCCTGCCTTTGCATTGTCTTCGGAGTCACCTAGTGCAG” here?
**A.** 8190 fluorescence intensity (a.u.)

**Q.** How did the binding signal turn out when “TAAACTACCTACTACTTGACCACCTCTCCGTCTCTCTTCCCGGAGTCACCTAGTGCAG” was run?
**A.** 9150 fluorescence intensity (a.u.)

**Q.** For “CCGAGTTTAGTTTCCTACTTTGATGGCTAGCTAAAAATTTCGGAGTCACCTAGTGCAG”, which binding signal is on record?
**A.** 8970 fluorescence intensity (a.u.)

**Q.** With “CAGTAGGCAAGTTCAGCACACGTTCCGGTTCTATTCCCAGCGGAGTCACCTAGTGCAG” as the sequence, how does the binding signal read?
**A.** 8680 fluorescence intensity (a.u.)

**Q.** With “TCAAAATCGTTTTTCCTTTTTCATTGCCATCACATTGTAGCGGAGTCACCTAGTGCAG” as the sequence, how does the binding signal read?
**A.** 8550 fluorescence intensity (a.u.)

**Q.** Which binding signal does the source give for “CTCTCGTCCGCTCCCCGCCGCCGCCGCTGCAGCTGCCTCTCGGAGTCACCTAGTGCAG” here?
**A.** 8390 fluorescence intensity (a.u.)

**Q.** Which binding signal does the source give for “GAACCCGTGCCGCTGCGCCCCAAACCCCACTACCATAAAACGGAGTCACCTAGTGCAG” here?
**A.** 10100 fluorescence intensity (a.u.)

**Q.** How did the binding signal turn out when “GTGGAGTTGCTTTCTCCTCCTCCTTGTTTGGGTTGGGTGCCGGAGTCACCTAGTGCAG” was run?
**A.** 11900 fluorescence intensity (a.u.)

**Q.** With “CCATCTCTATTCTCGCACCGTCCTATGTATTATCACCCTACGGAGTCACCTAGTGCAG” as the sequence, how does the binding signal read?
**A.** 9620 fluorescence intensity (a.u.)

**Q.** How did the binding signal turn out when “ATGGCAACGACCCAGTTCTGTCCGAGTAGGACTCCTTCCACGGAGTCACCTAGTGCAG” was run?
**A.** 8310 fluorescence intensity (a.u.)

**Q.** “ATTTAGTAATATTGCCAAGTTTTGATAGGATTTCTTATGTCGGAGTCACCTAGTGCAG” was tested. Which binding signal did it give?
**A.** 8180 fluorescence intensity (a.u.)

**Q.** How did the binding signal turn out when “TTTCTTGACTTTTTCATTTGAAGTCATTTAGTGTCTCAATCGGAGTCACCTAGTGCAG” was run?
**A.** 8810 fluorescence intensity (a.u.)

**Q.** For “GGAGGGGAGAGGGGAAAACGCGTGGGGCCATGATTGGCAACGGAGTCACCTAGTGCAG”, which binding signal is on record?
**A.** 9980 fluorescence intensity (a.u.)

**Q.** How did the binding signal turn out when “ATGTCGACCTGATGATTATTTTGTTGATCATGATTTTCTTCGGAGTCACCTAGTGCAG” was run?
**A.** 9010 fluorescence intensity (a.u.)

**Q.** Which binding signal does the source give for “AGTTTTTGTATGAGTTGTTCGATGTTTTACGCTCCCAAATCGGAGTCACCTAGTGCAG” here?
**A.** 8520 fluorescence intensity (a.u.)

**Q.** With “GCATGGTTATAACATAGGGGTGTATGGGGATAGTCATGCTCGGAGTCACCTAGTGCAG” as the sequence, how does the binding signal read?
**A.** 9470 fluorescence intensity (a.u.)

**Q.** How did the binding signal turn out when “TCGGGCTTTTGCTTCTCGAGGTTTGCCTTTGTATGCAGCACGGAGTCACCTAGTGCAG” was run?
**A.** 8340 fluorescence intensity (a.u.)

**Q.** For “TGCTCCACTTTCATCCCTACATCTCGGTCTCTCACAAGACCGGAGTCACCTAGTGCAG”, which binding signal is on record?
**A.** 10800 fluorescence intensity (a.u.)

**Q.** For “TGACATGGTTGTTAGGGTTTGCGAGCAAATTTTCGTGGGGCGGAGTCACCTAGTGCAG”, which binding signal is on record?
**A.** 10100 fluorescence intensity (a.u.)

**Q.** For “CTAGTGCGTGTTGTGTTCTTTAGTTGGTCGCCACACGGGCCGGAGTCACCTAGTGCAG”, which binding signal is on record?
**A.** 8300 fluorescence intensity (a.u.)

**Q.** “GCCCCAACCATCTCTCGCTCTCGCGCGCACGCAAACGCAACGGAGTCACCTAGTGCAG” was tested. Which binding signal did it give?
**A.** 9700 fluorescence intensity (a.u.)

**Q.** How did the binding signal turn out when “ACATATCTGGTTTTACGGTTCGAGTACTTTTTTTATCCTGCGGAGTCACCTAGTGCAG” was run?
**A.** 11000 fluorescence intensity (a.u.)

**Q.** With “GCTGGGTGTCAGAGGCTTCTTCAATGTTCTCCTCCTCAGGCGGAGTCACCTAGTGCAG” as the sequence, how does the binding signal read?
**A.** 8050 fluorescence intensity (a.u.)

**Q.** “CTCCTCTTGACATCACCCTACTTCCATATGCTGGCTTTAACGGAGTCACCTAGTGCAG” was tested. Which binding signal did it give?
**A.** 11800 fluorescence intensity (a.u.)

**Q.** “ACATTCTACTCAATATCTCAAATATGCTAACTCATTTTCCCGGAGTCACCTAGTGCAG” was tested. Which binding signal did it give?
**A.** 8100 fluorescence intensity (a.u.)

**Q.** How did the binding signal turn out when “AATGTACTCCTCCACATGCCTTCAATTCAGTACCATGTTTCGGAGTCACCTAGTGCAG” was run?
**A.** 10300 fluorescence intensity (a.u.)

**Q.** “CTCGCAAAATCAACGCTTGAGACGTTAGACACCCAATTTCCGGAGTCACCTAGTGCAG” was tested. Which binding signal did it give?
**A.** 8080 fluorescence intensity (a.u.)

**Q.** Which binding signal does the source give for “TATTTAACACATGGGAGGGAGATATTTAGTCTCGGTTAGTCGGAGTCACCTAGTGCAG” here?
**A.** 9700 fluorescence intensity (a.u.)

**Q.** Which binding signal does the source give for “TTTCCTGCTGTTTGTAGTTGTGTTTAGCCGCTGTAGTTTACGGAGTCACCTAGTGCAG” here?
**A.** 10900 fluorescence intensity (a.u.)

**Q.** For “ACGCGCGCACGCTCACCCCTATGAACATACATCCTACCCTCGGAGTCACCTAGTGCAG”, which binding signal is on record?
**A.** 8600 fluorescence intensity (a.u.)

**Q.** With “TGATGCATGGTGCCTCTGTCCTTTCAACTTTGGTTGCCTTCGGAGTCACCTAGTGCAG” as the sequence, how does the binding signal read?
**A.** 8620 fluorescence intensity (a.u.)

**Q.** “GCGACCACGCTCGACCGCCATCTCCCGCTCCTTGACCGTCCGGAGTCACCTAGTGCAG” was tested. Which binding signal did it give?
**A.** 10200 fluorescence intensity (a.u.)

**Q.** How did the binding signal turn out when “ACGCCAAACAATTTGATTCGTTGTCTTCGTGTTTTATTTCCGGAGTCACCTAGTGCAG” was run?
**A.** 11100 fluorescence intensity (a.u.)

**Q.** With “GTGAGGGGATCTTTCTCTTGGCTTCACTCGTCTTCCAATCCGGAGTCACCTAGTGCAG” as the sequence, how does the binding signal read?
**A.** 10900 fluorescence intensity (a.u.)

**Q.** Which binding signal does the source give for “GACGCCACATGGCTGCTAAACTTCGTTATCCTGTTGTTGTCGGAGTCACCTAGTGCAG” here?
**A.** 8470 fluorescence intensity (a.u.)

**Q.** How did the binding signal turn out when “ATACCTCTTGTGTATTAATTAAACATTAGTGTTTCTGTTCCGGAGTCACCTAGTGCAG” was run?
**A.** 48000 fluorescence intensity (a.u.)
